Data source: PubChem BioAssay AID1259405 (NCATS, 2018)
Shown is one part, drawn at random, of about 50,000 reagents. About 4,000 of all reagents (8%) were called active. 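Mouse siRNA library applied to hamster cells; one well for each siRNA.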 The numbers tell different reagents against one gene apart.

- Screen: 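Mouse-designed siRNAs used to find CHO productivity engineering targets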 (primary screen)
- System: Chinese hamster CHO-K1 ovary cells with stable secreted eGFP expression
- Reagent: single siRNA against mouse genes, 0.8 pmol siRNA per well (2 µl of 400 nM stock)
- Time to read-out: 3 days
- Measured: 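Percent of the per-plate non-targeting control median for intracellular GFP per well by laser scanning cytometry and for cell viability by ATP luminescence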
- Reading the numbers: GFP, % of control: higher = more GFP per well, higher productivity; viability (ATP), % of control: higher = more viable cells (more ATP)
- Active means: 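a knock-down is called active if GFP reaches 120% or more of non-targeting control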

| gene knocked down | reagent | GFP, % of control | viability (ATP), % of control | activity call |
| --- | --- | --- | --- | --- |
| Tbrg4 (GeneID 21379) | 1 | 85.1 | 57.8 | inactive |
| Tbrg4 (GeneID 21379) | 2 | 120 | 111 | active |
| Tbrg4 (GeneID 21379) | 3 | 68.9 | 86.8 | inactive |
| Def8 (GeneID 23854) | 1 | 63.4 | 80.8 | inactive |
| Def8 (GeneID 23854) | 2 | 93.9 | 74.8 | inactive |
| Def8 (GeneID 23854) | 3 | 119 | 83.9 | inactive |
| Amn (GeneID 93835) | 1 | 63.3 | 61.3 | inactive |
| Amn (GeneID 93835) | 2 | 64.6 | 71.8 | inactive |
| Amn (GeneID 93835) | 3 | 122 | 79.9 | active |
| Rpl3 (GeneID 27367) | 1 | 78.7 | 100 | inactive |
| Rpl3 (GeneID 27367) | 2 | 23.5 | 17.3 | inactive |
| Rpl3 (GeneID 27367) | 3 | 43.2 | 43.6 | inactive |
| Plvap (GeneID 84094) | 1 | 21.1 | 20.5 | inactive |
| Plvap (GeneID 84094) | 2 | 69.1 | 29.5 | inactive |
| Plvap (GeneID 84094) | 3 | 73.5 | 127 | inactive |
| Hhip (GeneID 15245) | 1 | 77.9 | 68.4 | inactive |
| Hhip (GeneID 15245) | 2 | 130 | 95.8 | active |
| Hhip (GeneID 15245) | 3 | 103 | 70.4 | inactive |
| Galnt11 (GeneID 231050) | 1 | 86.3 | 126 | inactive |
| Galnt11 (GeneID 231050) | 2 | 76.9 | 113 | inactive |
| Galnt11 (GeneID 231050) | 3 | 120 | 124 | active |
| Hbq1a (GeneID 216635) | 1 | 51.3 | 51.5 | inactive |
| Hbq1a (GeneID 216635) | 2 | 60.2 | 60 | inactive |
| Hbq1a (GeneID 216635) | 3 | 84.7 | 83.3 | inactive |
| Plin3 (GeneID 66905) | 1 | 104 | 75.4 | inactive |
| Plin3 (GeneID 66905) | 2 | 120 | 84.5 | active |
| Plin3 (GeneID 66905) | 3 | 89.1 | 77.8 | inactive |
| Celf6 (GeneID 76183) | 1 | 80 | 84.9 | inactive |
| Celf6 (GeneID 76183) | 2 | 117 | 92 | inactive |
| Celf6 (GeneID 76183) | 3 | 162 | 120 | active |
| Stoml1 (GeneID 69106) | 1 | 51.2 | 74.1 | inactive |
| Stoml1 (GeneID 69106) | 2 | 69.8 | 94.8 | inactive |
| Stoml1 (GeneID 69106) | 3 | 70.8 | 79.4 | inactive |
| Tex47 (GeneID 70920) | 1 | 118 | 87.9 | inactive |
| Tex47 (GeneID 70920) | 2 | 127 | 67.1 | active |
| Tex47 (GeneID 70920) | 3 | 74.1 | 101 | inactive |
| Crebl2 (GeneID 232430) | 1 | 69.7 | 70.1 | inactive |
| Crebl2 (GeneID 232430) | 2 | 145 | 57.6 | active |
| Crebl2 (GeneID 232430) | 3 | 106 | 82.9 | inactive |
| Tspyl3 (GeneID 241732) | 1 | 108 | 86.4 | inactive |
| Tspyl3 (GeneID 241732) | 2 | 83.8 | 80.3 | inactive |
| Tspyl3 (GeneID 241732) | 3 | 91.8 | 87.6 | inactive |
| Mael (GeneID 98558) | 1 | 78.7 | 64.4 | inactive |
| Mael (GeneID 98558) | 2 | 73.1 | 91.6 | inactive |
| Mael (GeneID 98558) | 3 | 95.2 | 96.5 | inactive |
| Srgn (GeneID 19073) | 1 | 107 | 108 | inactive |
| Srgn (GeneID 19073) | 2 | 79.6 | 62.2 | inactive |
| Srgn (GeneID 19073) | 3 | 50.9 | 63.2 | inactive |
| Myf5 (GeneID 17877) | 1 | 103 | 99.4 | inactive |
| Myf5 (GeneID 17877) | 2 | 59.9 | 59.6 | inactive |
| Myf5 (GeneID 17877) | 3 | 98 | 102 | inactive |
| Atp13a5 (GeneID 268878) | 1 | 84.9 | 82.4 | inactive |
| Atp13a5 (GeneID 268878) | 2 | 68.9 | 77.7 | inactive |
| Atp13a5 (GeneID 268878) | 3 | 49.5 | 69.8 | inactive |
| Rsrc2 (GeneID 208606) | 1 | 72.1 | 62.2 | inactive |
| Rsrc2 (GeneID 208606) | 2 | 71.9 | 70 | inactive |
| Rsrc2 (GeneID 208606) | 3 | 85.2 | 82.8 | inactive |
| Tmem205 (GeneID 235043) | 1 | 105 | 58.4 | inactive |
| Tmem205 (GeneID 235043) | 2 | 78.2 | 109 | inactive |
| Tmem205 (GeneID 235043) | 3 | 159 | 156 | active |
| Cyp8b1 (GeneID 13124) | 1 | 60.9 | 53.5 | inactive |
| Cyp8b1 (GeneID 13124) | 2 | 71.3 | 79.1 | inactive |
| Cyp8b1 (GeneID 13124) | 3 | 86.1 | 66 | inactive |
| Jph1 (GeneID 57339) | 1 | 49.1 | 59.2 | inactive |
| Jph1 (GeneID 57339) | 2 | 54.1 | 66 | inactive |
| Jph1 (GeneID 57339) | 3 | 77.9 | 55.3 | inactive |
| Ier5 (GeneID 15939) | 1 | 55.4 | 56.6 | inactive |
| Ier5 (GeneID 15939) | 2 | 90.6 | 65.3 | inactive |
| Ier5 (GeneID 15939) | 3 | 71.4 | 66.6 | inactive |
| Afg2b (GeneID 214616) | 1 | 74.7 | 95.2 | inactive |
| Afg2b (GeneID 214616) | 2 | 98.8 | 70.6 | inactive |
| Adcy4 (GeneID 104110) | 1 | 69.2 | 65.3 | inactive |
| Adcy4 (GeneID 104110) | 2 | 59.5 | 77.2 | inactive |
| Adcy4 (GeneID 104110) | 3 | 33.7 | 26.7 | inactive |
| Fbp2 (GeneID 14120) | 1 | 113 | 75.1 | inactive |
| Fbp2 (GeneID 14120) | 2 | 101 | 94.6 | inactive |
| Fbp2 (GeneID 14120) | 3 | 104 | 84.7 | inactive |
| Ophn1 (GeneID 94190) | 1 | 75.5 | 72.7 | inactive |
| Ophn1 (GeneID 94190) | 2 | 196 | 69.6 | active |
| Ophn1 (GeneID 94190) | 3 | 60.3 | 68.9 | inactive |
| Cenpm (GeneID 66570) | 1 | 88.9 | 74.8 | inactive |
| Cenpm (GeneID 66570) | 2 | 84.5 | 78 | inactive |
| Cenpm (GeneID 66570) | 3 | 107 | 96.1 | inactive |
| Stx1a (GeneID 20907) | 1 | 84.3 | 96.2 | inactive |
| Stx1a (GeneID 20907) | 2 | 73.8 | 69.9 | inactive |

Entries listed so far called active:
| gene knocked down | reagent | GFP, % of control | viability (ATP), % of control | activity call |
| --- | --- | --- | --- | --- |
| Tbrg4 (GeneID 21379) | 2 | 120 | 111 | active |
| Amn (GeneID 93835) | 3 | 122 | 79.9 | active |
| Hhip (GeneID 15245) | 2 | 130 | 95.8 | active |
| Galnt11 (GeneID 231050) | 3 | 120 | 124 | active |
| Plin3 (GeneID 66905) | 2 | 120 | 84.5 | active |
| Celf6 (GeneID 76183) | 3 | 162 | 120 | active |
| Tex47 (GeneID 70920) | 2 | 127 | 67.1 | active |
| Crebl2 (GeneID 232430) | 2 | 145 | 57.6 | active |
| Tmem205 (GeneID 235043) | 3 | 159 | 156 | active |
| Ophn1 (GeneID 94190) | 2 | 196 | 69.6 | active |
